Data reported in patent US20120053076A1, “METHODS FOR IDENTIFICATION” (Cambridge Enterprise Limited, priority 2009, published 2012).
For at least one compound, name, drawing or mass did not settle the structure.

Assays:
cultured pituitary cells = assay: Growth Hormone release from cultured pituitary cells (Example 12); assay type: cell-based; details: 10 nM
leukocytes = assay: Chemokine-induced leukocyte migration (cells not specified); assay type: cell-based; details: definition of potency, b81
fetal rat pituicytes = assay: Rat pituicyte GH suppression assay; assay type: cell-based; details: maximal at 10 nM
From the text: Two different assays for “classical” sstr2 functions were adopted: (1) cultured foetal rat pituitary cells secreted growth hormone which is inhibited by sstr2 agonists in a dose-dependent fashion and (2) selected glucose-sensitive sub-clones of the human Panc-1 cell line secrete insulin which is inhibited by sstr2 agonists in a dose-dependent fashion.
Methods: Cultures of fetal rat pituicytes were established exactly as previously described (Murray et al. (2004) J. Clin. Endocrinol. Metab. 89:3027-32) by enzymatic dispersion. After 48 hrs in low glucose DMEM plus 10% FCS, cells in 48 well plates (5×10^4 cells per well) were washed for 4 hrs in serum-free DMEM and then incubated with test agents at various concentrations for a further 24 hrs in serum-free DMEM. At the end of this period, the conditioned medium was harvested, any cell debris removed by centrifugation and assayed for GH using a commercially available ELISA (Linco; cat# EZRMGH-45K) in accordance with the manufacturer's instructions.
Results were reported as the mean±SD, expressed as the fold change from cells in the presence of vehicle only.

[1] = tested on: TNF-alpha production in response to bacterial endotoxin; assay: Sub-lethal endotoxemia model, serum TNF-alpha after LPS; assay type: in vivo; details: mouse, serum 2 hours after LPS
Procedure: We selected the sub-lethal endotoxemia model in mouse, because this has been well characterised in our laboratory (see for example Fox et al. (2002) J. Med. Chem. 45:360-70; Fox et al. (2005) J. Med. Chem. 48:867-74). The extent of systemic inflammation in response to a single intraperitoneal injection of bacterial lipopolysaccharide (LPS) can be estimated by measuring serum TNF-alpha 2 hours post challenge.
Methods: Mice (CD1 strain; adult males; 6 per group) were treated with BSCI (in an appropriate vehicle) or with vehicle alone by an appropriate route. […] Simultaneously, one set of mice at each BSCI concentration received BIM 23627 at […] by sub-cutaneous injection (a treatment condition known to suppress classical sstr2-mediated signalling, such as GH release, in rats; Tulipano et al. (2002) 143:1218-24). […]
After, a further 2 hours, the animals were sacrificed by CO2 asphyxiation, and blood was drawn by cardiac puncture. Serum was prepared by conventional methods, and the level of TNF-alpha in serum was measured using an ELISA (R&D Systems; Murine Quantikine code# MTA00) performed in accordance with the manufacturer's instructions. […]

Structure (SMILES)	Reduction in growth hormone secretion (maximal effect achievable) (cultured pituitary cells)	Inhibition of migration even at very high concentrations (leukocytes) [%]	Inhibition of GH secretion from rat fetal pituicytes (fetal rat pituicytes) [%]	Inhibition of TNF-alpha production in response to endotoxin, in words [1]
C[C@H](N)C(=O)NCC(=O)N[C@H]1CSSC[C@@H](C(=O)O)NC(=O)[C@H](CO)NC(=O)[C@H]([C@@H](C)O)NC(=O)[C@H](Cc2ccccc2)NC(=O)[C@H]([C@@H](C)O)NC(=O)[C@H](CCCCN)NC(=O)[C@H](Cc2c[nH]c3ccccc23)NC(=O)[C@H](Cc2ccccc2)NC(=O)[C@H](Cc2ccccc2)NC(=O)[C@H](CC(N)=O)NC(=O)[C@H](CCCCN)NC1=O [Sst-14]	approximately 75%	40	64±9	
C[C@@H]1C[C@H]2[C@@H]3CCC4=CC(=O)C=C[C@]4(C)[C@@]3(F)[C@@H](O)C[C@]2(C)[C@@]1(O)C(=O)CO [dexamethasone]				inhibited TNF-alpha production in response to endotoxin in a dose-dependent manner
